Experimental data published in article PMC6415874.
Results are given in words; binding and its absence hold for the method and conditions named. In cells and extracts the contact can be indirect. Some entries that bind do so weakly or less than the wild type. Tags and fused reporters may be left off the sequences shown.

By UniProt entry, the sequences of proteins in these tests, tags left out.
UniProt P46598: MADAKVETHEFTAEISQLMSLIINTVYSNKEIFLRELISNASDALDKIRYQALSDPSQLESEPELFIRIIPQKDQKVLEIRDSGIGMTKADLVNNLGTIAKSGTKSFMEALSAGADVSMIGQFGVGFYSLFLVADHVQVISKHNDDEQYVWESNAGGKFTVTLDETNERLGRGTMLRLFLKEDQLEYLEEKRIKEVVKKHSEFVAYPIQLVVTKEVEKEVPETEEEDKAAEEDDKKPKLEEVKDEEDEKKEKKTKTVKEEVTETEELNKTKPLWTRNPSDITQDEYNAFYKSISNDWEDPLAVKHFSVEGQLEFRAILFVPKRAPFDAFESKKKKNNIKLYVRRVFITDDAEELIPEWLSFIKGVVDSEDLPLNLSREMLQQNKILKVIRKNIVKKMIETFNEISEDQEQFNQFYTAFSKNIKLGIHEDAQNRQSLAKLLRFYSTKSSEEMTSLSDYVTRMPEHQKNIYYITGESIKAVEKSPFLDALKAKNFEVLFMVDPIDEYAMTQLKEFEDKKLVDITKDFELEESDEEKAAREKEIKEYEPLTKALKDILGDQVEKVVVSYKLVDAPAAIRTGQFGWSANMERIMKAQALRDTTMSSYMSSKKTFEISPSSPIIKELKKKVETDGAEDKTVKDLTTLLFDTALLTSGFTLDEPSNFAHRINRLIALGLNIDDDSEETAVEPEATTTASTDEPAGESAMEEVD

Assays:
[1] = target: GFP-tagged Heat shock protein 90 (Hsp90) (C. albicans) (UniProt P46598); experiment: condition: only cells grown on YPD-K medium (with glucose); co-IP; cells grown on YPD-K medium (2% glucose); lysate in 50 mM Na-HEPES pH 7.5, 450 mM NaOAc, 0.25% NP-40; anti-GFP antibody Sepharose, 4°C, 3 h; immunoblot with anti-Myc
[2] = target: GFP-tagged Heat shock protein 90 (Hsp90) (C. albicans) (UniProt P46598); experiment: co-IP; cells grown on YP-K medium (no glucose); lysate in 50 mM Na-HEPES pH 7.5, 450 mM NaOAc, 0.25% NP-40; anti-GFP antibody Sepharose, 4°C, 3 h; immunoblot with anti-Myc

B1: 13x Myc-tagged Cell Wall Transcription factor 1 (Cwt1) (protein, UniProt Q59M50 1-578)
chain: MSTMSTQKANSSTPGETDSSSSLPPPEITEPTYKKPEKSTKRRKKKLEIACVYCRRSHMICDESRPCQRCIKRGIAHLCYDEPSNSRQRKKAAALRKTQSEGAPMVTSPITLPLTGSTGNQSPLPLPPLQASQSDIRSAPKTENSLQFSQPALHQQQMQENPQGASQSVHTNNTHIYSSQNQQQQPQHQQQLQQQQPQPQPQSRLIKNSVLSQTLPYNQQPFFYSEHANSEFSSLNDFLSMIDDPELVNGALNDDTDGLLNFGVGNNNNSGGSNSNINNTHNNNNNGFSISGGNSTTNLNAVLAYSPNSNLFPPTFGNEADSTQIQSQQQQPELTQQPPALNPVKVEPQAEKTEQQPVISDSARDKFFLTAADPTTEISPEERLKQVIKAKLEAGLLQPYNYAKGYARLQRYMDNYMNISSRQRILKPLSIFRPAFRAIARTLKDVDLVLVEESFERMLLDYDRVFTAMAIPACLWRRTGEIYRGNKEFASLVGVTTDDLKDGKLAIYELMSEESAVNFWEKYGAIAFDKGQKAVLTSCNLRTRDGIKRKSCCFSFTIRRDRYNIPSCIVGNFIPIDP
- binding [1]: no binding
- binding [2]: binds
